According to the supplement of paper PMC12067093, “Discovery and optimisation of a covalent ligand for TRIM25 and its application to targeted protein ubiquitination” (Chemical Science, 2025):
This is one part of the list.

Sequences of proteins named here, by UniProt entry; tags and fusion partners are left off. A change or cut given only in a name is not applied to a line headed by its entry.
UniProt O14776: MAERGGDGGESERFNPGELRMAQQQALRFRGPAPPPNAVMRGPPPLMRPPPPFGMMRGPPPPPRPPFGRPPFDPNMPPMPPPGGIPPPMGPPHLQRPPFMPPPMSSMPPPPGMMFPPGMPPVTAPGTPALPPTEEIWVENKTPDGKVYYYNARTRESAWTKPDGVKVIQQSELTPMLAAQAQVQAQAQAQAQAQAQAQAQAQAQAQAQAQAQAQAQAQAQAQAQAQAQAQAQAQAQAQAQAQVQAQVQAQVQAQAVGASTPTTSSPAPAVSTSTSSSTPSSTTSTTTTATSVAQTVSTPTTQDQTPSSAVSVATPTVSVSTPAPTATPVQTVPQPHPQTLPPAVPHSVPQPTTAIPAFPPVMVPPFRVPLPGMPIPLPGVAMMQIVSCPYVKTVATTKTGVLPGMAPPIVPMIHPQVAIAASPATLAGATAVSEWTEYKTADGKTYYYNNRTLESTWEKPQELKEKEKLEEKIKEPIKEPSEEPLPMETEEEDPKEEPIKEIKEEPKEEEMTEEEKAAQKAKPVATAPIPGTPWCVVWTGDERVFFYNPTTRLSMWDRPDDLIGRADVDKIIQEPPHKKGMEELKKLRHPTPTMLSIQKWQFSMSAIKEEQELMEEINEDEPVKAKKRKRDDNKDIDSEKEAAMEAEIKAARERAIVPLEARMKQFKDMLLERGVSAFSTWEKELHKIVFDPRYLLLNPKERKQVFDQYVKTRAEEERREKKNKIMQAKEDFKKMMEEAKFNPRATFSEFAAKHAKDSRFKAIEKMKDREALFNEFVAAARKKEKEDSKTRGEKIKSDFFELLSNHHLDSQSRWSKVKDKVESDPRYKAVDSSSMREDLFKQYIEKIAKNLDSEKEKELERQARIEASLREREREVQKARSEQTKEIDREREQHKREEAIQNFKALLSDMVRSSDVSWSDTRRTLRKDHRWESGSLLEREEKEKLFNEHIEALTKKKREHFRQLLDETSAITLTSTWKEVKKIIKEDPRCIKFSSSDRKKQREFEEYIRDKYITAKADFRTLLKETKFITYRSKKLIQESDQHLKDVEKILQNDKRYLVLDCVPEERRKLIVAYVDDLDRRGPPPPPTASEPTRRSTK
UniProt Q86TM6, whole entry, looked up: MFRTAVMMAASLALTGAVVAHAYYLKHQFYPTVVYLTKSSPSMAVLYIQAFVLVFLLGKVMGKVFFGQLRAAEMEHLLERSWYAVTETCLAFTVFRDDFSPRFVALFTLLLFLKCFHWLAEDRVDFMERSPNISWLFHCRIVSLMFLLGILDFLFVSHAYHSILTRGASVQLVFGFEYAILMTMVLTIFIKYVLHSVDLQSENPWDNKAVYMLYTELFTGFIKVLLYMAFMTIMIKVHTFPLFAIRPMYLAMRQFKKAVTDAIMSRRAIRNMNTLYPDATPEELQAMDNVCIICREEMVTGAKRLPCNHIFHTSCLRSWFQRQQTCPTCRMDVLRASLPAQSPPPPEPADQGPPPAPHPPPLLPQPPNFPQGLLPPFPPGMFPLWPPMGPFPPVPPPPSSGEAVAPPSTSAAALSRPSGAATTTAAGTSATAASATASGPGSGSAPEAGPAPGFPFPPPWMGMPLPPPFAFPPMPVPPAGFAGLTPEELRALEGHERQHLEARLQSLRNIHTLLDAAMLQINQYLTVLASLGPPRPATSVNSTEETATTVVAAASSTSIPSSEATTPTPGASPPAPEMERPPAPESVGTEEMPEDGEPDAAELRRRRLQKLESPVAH
UniProt Q92844: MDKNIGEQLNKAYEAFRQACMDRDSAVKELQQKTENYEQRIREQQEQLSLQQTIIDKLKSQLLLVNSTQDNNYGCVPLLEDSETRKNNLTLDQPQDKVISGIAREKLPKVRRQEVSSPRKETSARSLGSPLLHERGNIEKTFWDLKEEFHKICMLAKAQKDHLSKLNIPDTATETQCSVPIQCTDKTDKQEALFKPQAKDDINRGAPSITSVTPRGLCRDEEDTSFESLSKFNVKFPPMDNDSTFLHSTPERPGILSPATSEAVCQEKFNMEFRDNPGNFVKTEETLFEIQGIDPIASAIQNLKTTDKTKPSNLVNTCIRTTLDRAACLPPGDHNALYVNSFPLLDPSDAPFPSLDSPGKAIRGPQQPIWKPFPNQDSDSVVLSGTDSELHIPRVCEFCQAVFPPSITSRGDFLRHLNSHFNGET
UniProt Q9NVG8: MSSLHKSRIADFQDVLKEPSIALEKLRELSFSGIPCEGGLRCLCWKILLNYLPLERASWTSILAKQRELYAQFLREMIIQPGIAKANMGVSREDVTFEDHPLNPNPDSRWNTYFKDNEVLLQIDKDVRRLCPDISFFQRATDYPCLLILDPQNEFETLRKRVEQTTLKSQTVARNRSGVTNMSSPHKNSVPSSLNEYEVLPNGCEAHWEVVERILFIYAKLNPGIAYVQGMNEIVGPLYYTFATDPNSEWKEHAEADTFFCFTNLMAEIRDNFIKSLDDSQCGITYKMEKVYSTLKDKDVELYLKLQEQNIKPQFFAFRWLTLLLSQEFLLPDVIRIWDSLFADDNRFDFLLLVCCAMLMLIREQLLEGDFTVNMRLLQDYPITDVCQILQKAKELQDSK
UniProt Q03519, whole entry, looked up: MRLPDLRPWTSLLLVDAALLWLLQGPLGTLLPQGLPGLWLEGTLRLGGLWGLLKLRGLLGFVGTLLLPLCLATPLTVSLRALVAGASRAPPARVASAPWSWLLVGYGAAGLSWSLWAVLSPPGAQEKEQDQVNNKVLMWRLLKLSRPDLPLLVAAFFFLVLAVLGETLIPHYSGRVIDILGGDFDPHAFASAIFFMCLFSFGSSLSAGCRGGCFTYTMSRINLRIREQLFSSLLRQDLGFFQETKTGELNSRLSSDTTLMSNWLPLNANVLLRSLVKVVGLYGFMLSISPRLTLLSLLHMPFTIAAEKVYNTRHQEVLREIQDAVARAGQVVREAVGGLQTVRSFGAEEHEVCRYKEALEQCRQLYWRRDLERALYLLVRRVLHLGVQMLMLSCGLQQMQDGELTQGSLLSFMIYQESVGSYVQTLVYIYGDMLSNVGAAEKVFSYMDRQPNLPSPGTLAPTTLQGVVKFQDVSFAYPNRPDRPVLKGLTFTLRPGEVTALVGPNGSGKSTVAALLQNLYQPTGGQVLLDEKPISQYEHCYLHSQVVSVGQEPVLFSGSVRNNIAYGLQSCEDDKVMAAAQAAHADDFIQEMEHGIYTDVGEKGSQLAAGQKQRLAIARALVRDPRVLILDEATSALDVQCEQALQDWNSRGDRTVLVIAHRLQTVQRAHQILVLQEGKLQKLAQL
UniProt Q15813: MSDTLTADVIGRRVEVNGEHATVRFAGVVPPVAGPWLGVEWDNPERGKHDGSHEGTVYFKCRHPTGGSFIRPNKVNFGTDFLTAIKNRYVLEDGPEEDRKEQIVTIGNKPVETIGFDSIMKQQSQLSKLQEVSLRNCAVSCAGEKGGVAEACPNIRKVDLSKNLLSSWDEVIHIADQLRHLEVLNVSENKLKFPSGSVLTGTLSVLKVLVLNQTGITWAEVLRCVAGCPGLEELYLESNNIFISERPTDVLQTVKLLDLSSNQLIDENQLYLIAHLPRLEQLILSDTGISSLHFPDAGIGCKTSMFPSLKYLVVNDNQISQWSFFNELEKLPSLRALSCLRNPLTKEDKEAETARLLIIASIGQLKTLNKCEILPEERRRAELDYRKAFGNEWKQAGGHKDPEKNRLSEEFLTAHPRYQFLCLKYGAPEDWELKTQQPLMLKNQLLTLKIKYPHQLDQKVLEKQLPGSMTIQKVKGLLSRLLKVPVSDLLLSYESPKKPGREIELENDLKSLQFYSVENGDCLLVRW
UniProt Q9BX59, whole entry, looked up: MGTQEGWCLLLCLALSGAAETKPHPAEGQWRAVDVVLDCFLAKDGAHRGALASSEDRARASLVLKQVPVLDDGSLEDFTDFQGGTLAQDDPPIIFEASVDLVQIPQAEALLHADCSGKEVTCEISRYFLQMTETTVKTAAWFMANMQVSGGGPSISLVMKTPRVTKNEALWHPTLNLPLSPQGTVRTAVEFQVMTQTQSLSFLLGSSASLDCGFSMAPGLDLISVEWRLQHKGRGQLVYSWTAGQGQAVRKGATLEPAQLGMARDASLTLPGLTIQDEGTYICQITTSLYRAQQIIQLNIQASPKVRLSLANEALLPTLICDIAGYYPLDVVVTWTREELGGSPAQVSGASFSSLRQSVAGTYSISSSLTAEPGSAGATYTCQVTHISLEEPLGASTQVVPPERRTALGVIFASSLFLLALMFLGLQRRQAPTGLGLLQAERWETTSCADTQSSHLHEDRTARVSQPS
UniProt Q6P1N9: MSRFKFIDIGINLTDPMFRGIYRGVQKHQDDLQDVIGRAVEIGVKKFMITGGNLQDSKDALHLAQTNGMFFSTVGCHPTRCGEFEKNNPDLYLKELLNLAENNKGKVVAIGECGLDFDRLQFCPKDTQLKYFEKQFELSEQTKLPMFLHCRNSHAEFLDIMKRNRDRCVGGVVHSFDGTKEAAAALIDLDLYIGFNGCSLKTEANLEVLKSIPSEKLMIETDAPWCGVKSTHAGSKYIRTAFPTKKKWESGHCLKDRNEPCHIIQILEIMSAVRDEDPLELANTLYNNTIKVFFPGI
UniProt Q9BTW9: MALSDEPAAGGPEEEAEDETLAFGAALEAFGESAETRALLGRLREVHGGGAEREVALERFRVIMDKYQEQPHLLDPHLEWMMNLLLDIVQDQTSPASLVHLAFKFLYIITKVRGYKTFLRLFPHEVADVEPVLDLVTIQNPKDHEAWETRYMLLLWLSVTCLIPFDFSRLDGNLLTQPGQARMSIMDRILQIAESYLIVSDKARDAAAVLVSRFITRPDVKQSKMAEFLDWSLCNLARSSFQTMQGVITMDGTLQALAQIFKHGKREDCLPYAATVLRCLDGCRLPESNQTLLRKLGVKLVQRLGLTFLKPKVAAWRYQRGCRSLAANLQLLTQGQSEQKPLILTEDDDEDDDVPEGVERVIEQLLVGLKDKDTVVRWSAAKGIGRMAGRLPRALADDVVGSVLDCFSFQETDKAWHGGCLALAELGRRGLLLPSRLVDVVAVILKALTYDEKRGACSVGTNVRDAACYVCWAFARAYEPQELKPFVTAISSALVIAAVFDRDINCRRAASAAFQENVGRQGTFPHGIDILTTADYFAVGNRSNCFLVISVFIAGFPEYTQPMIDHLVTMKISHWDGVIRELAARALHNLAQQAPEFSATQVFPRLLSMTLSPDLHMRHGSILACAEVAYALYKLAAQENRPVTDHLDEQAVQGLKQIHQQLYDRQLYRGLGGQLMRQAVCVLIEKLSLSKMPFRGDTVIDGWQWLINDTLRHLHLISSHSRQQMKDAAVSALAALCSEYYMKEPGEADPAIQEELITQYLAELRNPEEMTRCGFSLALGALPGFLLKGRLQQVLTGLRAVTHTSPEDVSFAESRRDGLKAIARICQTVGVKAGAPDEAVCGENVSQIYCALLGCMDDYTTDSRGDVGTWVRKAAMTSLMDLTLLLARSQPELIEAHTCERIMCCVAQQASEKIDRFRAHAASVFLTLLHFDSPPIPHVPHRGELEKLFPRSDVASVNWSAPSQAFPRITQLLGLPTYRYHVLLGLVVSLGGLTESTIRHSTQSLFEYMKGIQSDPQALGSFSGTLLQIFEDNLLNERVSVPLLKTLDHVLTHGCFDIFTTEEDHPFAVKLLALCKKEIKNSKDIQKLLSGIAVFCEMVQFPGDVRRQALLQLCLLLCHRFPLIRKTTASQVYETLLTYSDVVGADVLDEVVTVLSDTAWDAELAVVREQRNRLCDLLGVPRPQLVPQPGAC
UniProt Q9UHD2: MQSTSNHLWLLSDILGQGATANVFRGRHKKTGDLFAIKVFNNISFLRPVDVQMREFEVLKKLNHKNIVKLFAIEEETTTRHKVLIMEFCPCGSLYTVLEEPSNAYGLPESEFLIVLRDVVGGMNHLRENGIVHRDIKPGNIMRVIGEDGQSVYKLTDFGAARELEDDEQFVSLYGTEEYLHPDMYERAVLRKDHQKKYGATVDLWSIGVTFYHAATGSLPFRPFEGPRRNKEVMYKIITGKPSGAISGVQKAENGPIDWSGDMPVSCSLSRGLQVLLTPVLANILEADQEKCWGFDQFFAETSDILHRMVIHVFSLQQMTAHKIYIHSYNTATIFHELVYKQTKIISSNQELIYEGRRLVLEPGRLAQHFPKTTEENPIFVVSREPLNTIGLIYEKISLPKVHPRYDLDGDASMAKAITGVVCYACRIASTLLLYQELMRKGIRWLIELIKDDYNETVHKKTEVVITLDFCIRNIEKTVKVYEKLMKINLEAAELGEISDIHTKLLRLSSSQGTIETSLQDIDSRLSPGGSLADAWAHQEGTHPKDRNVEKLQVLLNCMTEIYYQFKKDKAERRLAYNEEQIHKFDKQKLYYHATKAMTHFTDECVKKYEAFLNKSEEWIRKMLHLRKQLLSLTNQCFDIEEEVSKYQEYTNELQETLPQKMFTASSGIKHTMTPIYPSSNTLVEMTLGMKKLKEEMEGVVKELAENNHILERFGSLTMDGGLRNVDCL

Compound: Cc1cc(ccc1-c1ccccc1)C(=O)N1CCCN(CC1)C(=O)CCl [compound 10]
Experiment: probe-labelled cysteine peptide fold change vs DMSO (competition) (log2 fold change); higher = less target engagement (more negative = stronger competition)
Settings: THP-1, incubation time: 4 h
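Further: competitive profiling in live THP-1 cells: cysteine peptides tagged with an iodoacetamide desthiobiotin (IA-DTB) probe, intensity after compound treatment relative to DMSO-treated cells.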

Target	probe-labelled cysteine peptide fold change (10 µM)	probe-labelled cysteine peptide fold change (50 µM)
SZT2_Q5T011_1152_LAACGLEGPPQEETKPK (UniProt Q5T011)	-0.32	-0.367
TAX1BP1_Q86VP1_328_LQLCLAEK (UniProt Q86VP1)	-0.303	-0.432
TBC1D23_Q9NUY8_399_QSIESGSIAGGEHLCFMGSGR (UniProt Q9NUY8)	-0.0826	0.167
TBC1D8B_Q0IIM8_305_EVHECFLWVPFSHFNTHGK (UniProt Q0IIM8)	0.0597	0.0528
TBC1D15_Q8TC07_605_IDVEDILCK (UniProt Q8TC07)	0.204	0.271
TCERG1_O14776_1062_RYLVLDCVPEER (UniProt O14776)	0.0933	0.218
SYVN1_Q86TM6_329_QQTCPTCR (UniProt Q86TM6)	0.127	0.263
TANK_Q92844_183_LNIPDTATETQCSVPIQCTDK (UniProt Q92844)	-0.166	-0.156
TBC1D13_Q9NVG8_204_NSVPSSLNEYEVLPNGCEAHWEVVER (UniProt Q9NVG8)	0.261	0.262
TAF2_Q6P1X5_701_MSACFCLAK (UniProt Q6P1X5)	-0.0214	0.0218
TAP2_Q03519_641_VLILDEATSALDVQCEQALQDWNSR (UniProt Q03519)	-0.0445	-0.173
TBCE_Q15813_152_GGVAEACPNIR (UniProt Q15813)	-0.0462	0.118
TBC1D13_Q9NVG8_145_ATDYPCLLILDPQNEFETLRK (UniProt Q9NVG8)	0.00255	-0.376
TBC1D5_Q92609_706_QASSETPGCTDR (UniProt Q92609)	-0.154	-0.0762
TAPBPL_Q9BX59_39_AVDVVLDCFLAK (UniProt Q9BX59)	0.062	-0.104
SYVN1_Q86TM6_307_LPCNHIFHTSCLR (UniProt Q86TM6)	0.193	0.273
TATDN1_Q6P1N9_113_VVAIGECGLDFDR (UniProt Q6P1N9)	-0.00967	0.199
SYVN1_Q86TM6_326+329_QQTCPTCR (UniProt Q86TM6)	-0.0656	-0.505
TATDN1_Q6P1N9_253_KWESGHCLK (UniProt Q6P1N9)	-0.0435	-0.161
TANK_Q92844_218_GLCRDEEDTSFESLSK (UniProt Q92844)	-0.39	-0.236
TBCD_Q9BTW9_1055_TLDHVLTHGCFDIFTTEEDHPFAVK (UniProt Q9BTW9)	-0.188	-0.0289
TARS_P26639_137_VNNVVWDLDRPLEEDCTLELLK (UniProt P26639)	0.0651	0.0458
TAF6L_Q9Y6J9_122_GCAETAVR (UniProt Q9Y6J9)	-0.123	0.0335

Target	probe-labelled cysteine peptide fold change (10 µM)	probe-labelled cysteine peptide fold change (50 µM)
TAF6_P49848_141_AHWLSIEGCQPAIPENPPPAPK (UniProt P49848)	-0.235	-0.242
TACC1_O75410_482_KHETQSLALDACSR (UniProt O75410)	-0.349	-0.296
TADA2B_Q86TJ2_32+35_CTECQDIELCPECFSAGAEIGHHR (UniProt Q86TJ2)	0.314	0.417
TCERG1_O14776_1062_YLVLDCVPEER (UniProt O14776)	0.0479	0.0794
TBRG4_Q969Z0_335_LATDLLSLMPSLTSGEVAHCAK (UniProt Q969Z0)	0.142	0.146
TAP2_Q03519_540_PISQYEHCYLHSQVVSVGQEPVLFSGSVR (UniProt Q03519)	-0.152	0.336
TBCD_Q9BTW9_269_REDCLPYAATVLR (UniProt Q9BTW9)	-0.112	0.101
TBCC_Q15814_6_MESVSCSAAAVR (UniProt Q15814)	-0.187	-0.303
TBC1D9B_Q66K14_340_EEDACHLIIPLR (UniProt Q66K14)	0.279	0.292
TATDN1_Q6P1N9_81_CGEFEK (UniProt Q6P1N9)	-0.227	-0.33
TBK1_Q9UHD2_605_AMTHFTDECVK (UniProt Q9UHD2)	-0.171	0.226
TCEAL3_Q969E4_44_TECEGKREDEGEPGDEGQLEDEGSQEK (UniProt Q969E4)	-0.104	-0.97
TACO1_Q9BSH4_234_FICDASSLHQVR (UniProt Q9BSH4)	0.293	-0.0566
TBL3_Q12788_41+43_AQLDQTGQHLFCVCGTR (UniProt Q12788)	0.0953	-0.349
TBCE_Q15813_371_CEILPEER (UniProt Q15813)	-0.191	-0.4
TAF1C_Q15572_162_LLQDLGGHQPWGCPWAYLSNR (UniProt Q15572)	-0.035	-0.311
TBCK_Q8TEA7_54_LCQYVDISR (UniProt Q8TEA7)	0.114	0.0076
TARBP1_Q13395_24_ALLGALCQGEASAER (UniProt Q13395)	0.00453	-0.249
TAPBP_O15533_91_GAPAPHCEMSR (UniProt O15533)	-0.0185	-0.0225
TBK1_Q9UHD2_292_CWGFDQFFAETSDILHR (UniProt Q9UHD2)	-0.075	0.189
TANC1_Q9C0D5_800_MDALSCFLIK (UniProt Q9C0D5)	-0.167	-1.29
TBCD_Q9BTW9_406_ALADDVVGSVLDCFSFQETDK (UniProt Q9BTW9)	0.121	0.378
